Read-outs that look alike come from different tables or passages of the source. Results are given in words; binding and its absence hold for the method and conditions named. In cells and extracts the contact can be indirect. These calls come from enrichment with a bait or labelling near it, and not all partners need be listed. A no says only that the protein was not detected with the bait.
T1: Rasputin (RIN), Drosophila G3BP (Drosophila (endogenous in embryos)) (UniProt Q9VFT4)
T1 sequence: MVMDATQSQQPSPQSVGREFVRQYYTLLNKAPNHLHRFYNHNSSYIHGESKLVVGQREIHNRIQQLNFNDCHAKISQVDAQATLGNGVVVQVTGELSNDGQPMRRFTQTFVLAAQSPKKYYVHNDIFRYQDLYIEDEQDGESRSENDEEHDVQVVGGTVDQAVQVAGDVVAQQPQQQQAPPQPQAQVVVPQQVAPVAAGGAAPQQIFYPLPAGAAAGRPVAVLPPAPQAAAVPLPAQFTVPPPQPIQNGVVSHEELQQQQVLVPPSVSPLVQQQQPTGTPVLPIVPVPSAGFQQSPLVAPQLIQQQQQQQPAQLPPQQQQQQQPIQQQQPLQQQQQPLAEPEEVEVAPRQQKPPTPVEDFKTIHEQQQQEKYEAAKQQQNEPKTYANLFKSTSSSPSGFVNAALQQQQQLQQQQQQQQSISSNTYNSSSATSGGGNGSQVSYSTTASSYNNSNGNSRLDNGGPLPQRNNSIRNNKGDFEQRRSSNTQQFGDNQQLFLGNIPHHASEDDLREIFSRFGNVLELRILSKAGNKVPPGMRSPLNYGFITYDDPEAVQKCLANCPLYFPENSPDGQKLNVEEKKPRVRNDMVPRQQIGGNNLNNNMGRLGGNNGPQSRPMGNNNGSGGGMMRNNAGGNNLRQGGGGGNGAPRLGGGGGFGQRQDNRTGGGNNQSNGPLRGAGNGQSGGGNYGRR

Chains of the proteins cited; added tags and fusions are not shown.
UniProt O18640: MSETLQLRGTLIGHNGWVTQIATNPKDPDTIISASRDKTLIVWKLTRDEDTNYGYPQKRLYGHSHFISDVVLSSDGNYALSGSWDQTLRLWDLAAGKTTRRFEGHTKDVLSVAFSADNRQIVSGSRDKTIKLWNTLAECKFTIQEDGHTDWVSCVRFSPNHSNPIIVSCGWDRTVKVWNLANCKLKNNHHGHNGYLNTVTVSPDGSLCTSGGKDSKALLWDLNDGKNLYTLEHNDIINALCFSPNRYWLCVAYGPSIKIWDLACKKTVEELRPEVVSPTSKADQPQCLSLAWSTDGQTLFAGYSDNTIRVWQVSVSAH

B1: Caprin (protein, UniProt Q9I7D3 1-961)
chain: MPSAANTATVTAAIATTVAASASNTNNNSVSKEKRSSIISLGGSVIPGTAVAAGAGVATTNGQSNSSAAATADGSQTDLASSNNNGNAAKSKANAVSAAAVVPEPYNPLKQLLVTIEHKIRNLEKRKTKLESYRAIQSSGKELSGDQASAVAKYDAVLANLEFARELAKHIQQQSKEAEKEQKKQARKDNLAKTIAETAKIREVLIIQNVLNCFNDDQVRSDFLNGENGAKKLENTELELLEKFFIETQTRRPETADDVSFIATAQKSAELFYSTINARPKSFGEVSFEKLRSLFQQIQDSGYLDKYYLVPLAENAVANSTDSGTGSGDGESGDLLNDGSGELDAELPSEPSARNSLEEGLDKLHLGVQAELDQHQSYQQQQERPSHLLEPQHQRAPSLEHQQNSMVQQVSTQVYQAAPQAGGTTTPVHVLYAPAPPAQQQPQQPPPHPHQLLSSPVNLQALQTGTAAPPAQQQQPHPTHFAPNVRAVEQNYFKQPPQHPQGPGIQAPQTPQQQQFMQHSRPLAEVLGTGRFHFLQDSELDNPEALAPPPPTNQGLVFEQQPQQPNHVEEPTQAILTLTFTNQSFPSQQPQPQQQGPQQQQQLFSPVLIHEQRQQPPQQQPQPMLIMPRLPTQQPQQPAPQGIGMQAGDVTSGFSYENAVVSYEQQIQQQLKQQQQQQQQQQQNLQQLDEPSSVNSSSSVGAGGDVENNEWHARNNDTNAAATAALTNVLKGETTQATPPAPPTKWSSEMNAMSSAASNGSSNTSHKQEWATPRDHSTGGGNSGYADNNESNNHWNNSQGDGRRNSGNYQRRGGDRDNRDRDQGGRGDERRNGGDRGNYRSRQYGNSSNTNGRNSGNSSGVYFRNNESGNGGGNNYYQNGGGGGGTYNKESRYESSGGGGGSYRGQRGGNQQRNVNGSYGGGRPMGDRGRGGAGNQGGGGGGYINRQNQSQRMPLGLENKN

How the values were obtained:
[1] = molecular target: T1, Rasputin (RIN), Drosophila G3BP (Drosophila (endogenous in embryos)); experiment: affinity purification with mass spectrometry
[2] = molecular target: T1, Rasputin (RIN), Drosophila G3BP (Drosophila (endogenous in embryos)); experiment: affinity purification with mass spectrometry; remark: listed apart in the source

binding [1] | binding [2] | Molecule
binds |  | Twenty-four (Drosophila (endogenous in embryos))
no binding | no binding | Drosophila RACK1 (from UniProt O18640 1-318)
binds |  | HSC70Cb (Drosophila (endogenous in embryos))
binds |  | B1

Source: publication doi:10.1101/2020.01.21.913079
